This is one part of the list.
Compound: Cc1cc(ccc1-c1ccccc1)C(=O)N1CCCN(CC1)C(=O)CCl [compound 10]
Test: probe-labelled cysteine peptide fold change vs DMSO (competition) (log2 fold change); higher = less target engagement (more negative = stronger competition)
Settings: THP-1, incubation time: 4 h
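Further: competitive profiling in live THP-1 cells: cysteine peptides tagged with an iodoacetamide desthiobiotin (IA-DTB) probe, intensity after compound treatment relative to DMSO-treated cells.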

The chains behind the UniProt entries cited, without tags or fusion partners. Where a name states a change or a piece, a line headed by the entry shows the natural chain unless it says otherwise.
UniProt Q96KR1: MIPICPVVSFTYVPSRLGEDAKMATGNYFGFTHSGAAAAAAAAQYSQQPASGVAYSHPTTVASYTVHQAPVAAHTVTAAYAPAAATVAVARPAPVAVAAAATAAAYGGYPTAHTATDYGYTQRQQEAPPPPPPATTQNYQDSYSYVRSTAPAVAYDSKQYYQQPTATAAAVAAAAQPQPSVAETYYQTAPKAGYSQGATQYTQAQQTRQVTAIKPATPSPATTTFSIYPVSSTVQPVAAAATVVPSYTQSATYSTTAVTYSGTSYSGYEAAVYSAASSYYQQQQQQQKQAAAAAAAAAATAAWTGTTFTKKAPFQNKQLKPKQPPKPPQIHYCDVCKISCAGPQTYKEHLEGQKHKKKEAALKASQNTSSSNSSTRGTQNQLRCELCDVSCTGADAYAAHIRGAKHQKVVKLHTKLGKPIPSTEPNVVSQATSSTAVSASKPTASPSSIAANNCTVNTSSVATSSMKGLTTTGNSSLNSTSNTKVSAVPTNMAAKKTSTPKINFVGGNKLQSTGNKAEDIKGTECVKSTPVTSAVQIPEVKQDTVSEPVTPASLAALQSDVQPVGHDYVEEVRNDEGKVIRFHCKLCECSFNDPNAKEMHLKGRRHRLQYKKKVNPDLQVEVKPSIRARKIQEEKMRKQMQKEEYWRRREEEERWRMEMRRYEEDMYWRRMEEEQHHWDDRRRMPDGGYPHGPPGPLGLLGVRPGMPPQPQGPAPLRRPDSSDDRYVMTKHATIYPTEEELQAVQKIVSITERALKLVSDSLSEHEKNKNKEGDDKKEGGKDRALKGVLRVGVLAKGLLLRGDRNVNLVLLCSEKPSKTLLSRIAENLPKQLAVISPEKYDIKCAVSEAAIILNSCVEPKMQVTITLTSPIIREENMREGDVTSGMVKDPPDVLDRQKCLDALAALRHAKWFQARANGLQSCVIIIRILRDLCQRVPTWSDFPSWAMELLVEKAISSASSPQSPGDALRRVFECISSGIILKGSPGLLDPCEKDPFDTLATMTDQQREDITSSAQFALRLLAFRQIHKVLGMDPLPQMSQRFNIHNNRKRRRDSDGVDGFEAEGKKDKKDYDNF
UniProt O95159: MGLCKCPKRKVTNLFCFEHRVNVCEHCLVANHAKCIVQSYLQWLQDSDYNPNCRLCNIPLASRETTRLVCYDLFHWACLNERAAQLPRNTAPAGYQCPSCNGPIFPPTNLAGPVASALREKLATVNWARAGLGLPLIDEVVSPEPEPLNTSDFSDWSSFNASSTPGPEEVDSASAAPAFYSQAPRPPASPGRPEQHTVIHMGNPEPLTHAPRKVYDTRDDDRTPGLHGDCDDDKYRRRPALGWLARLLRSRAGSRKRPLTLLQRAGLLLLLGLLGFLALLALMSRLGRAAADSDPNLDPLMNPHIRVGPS
UniProt Q14202: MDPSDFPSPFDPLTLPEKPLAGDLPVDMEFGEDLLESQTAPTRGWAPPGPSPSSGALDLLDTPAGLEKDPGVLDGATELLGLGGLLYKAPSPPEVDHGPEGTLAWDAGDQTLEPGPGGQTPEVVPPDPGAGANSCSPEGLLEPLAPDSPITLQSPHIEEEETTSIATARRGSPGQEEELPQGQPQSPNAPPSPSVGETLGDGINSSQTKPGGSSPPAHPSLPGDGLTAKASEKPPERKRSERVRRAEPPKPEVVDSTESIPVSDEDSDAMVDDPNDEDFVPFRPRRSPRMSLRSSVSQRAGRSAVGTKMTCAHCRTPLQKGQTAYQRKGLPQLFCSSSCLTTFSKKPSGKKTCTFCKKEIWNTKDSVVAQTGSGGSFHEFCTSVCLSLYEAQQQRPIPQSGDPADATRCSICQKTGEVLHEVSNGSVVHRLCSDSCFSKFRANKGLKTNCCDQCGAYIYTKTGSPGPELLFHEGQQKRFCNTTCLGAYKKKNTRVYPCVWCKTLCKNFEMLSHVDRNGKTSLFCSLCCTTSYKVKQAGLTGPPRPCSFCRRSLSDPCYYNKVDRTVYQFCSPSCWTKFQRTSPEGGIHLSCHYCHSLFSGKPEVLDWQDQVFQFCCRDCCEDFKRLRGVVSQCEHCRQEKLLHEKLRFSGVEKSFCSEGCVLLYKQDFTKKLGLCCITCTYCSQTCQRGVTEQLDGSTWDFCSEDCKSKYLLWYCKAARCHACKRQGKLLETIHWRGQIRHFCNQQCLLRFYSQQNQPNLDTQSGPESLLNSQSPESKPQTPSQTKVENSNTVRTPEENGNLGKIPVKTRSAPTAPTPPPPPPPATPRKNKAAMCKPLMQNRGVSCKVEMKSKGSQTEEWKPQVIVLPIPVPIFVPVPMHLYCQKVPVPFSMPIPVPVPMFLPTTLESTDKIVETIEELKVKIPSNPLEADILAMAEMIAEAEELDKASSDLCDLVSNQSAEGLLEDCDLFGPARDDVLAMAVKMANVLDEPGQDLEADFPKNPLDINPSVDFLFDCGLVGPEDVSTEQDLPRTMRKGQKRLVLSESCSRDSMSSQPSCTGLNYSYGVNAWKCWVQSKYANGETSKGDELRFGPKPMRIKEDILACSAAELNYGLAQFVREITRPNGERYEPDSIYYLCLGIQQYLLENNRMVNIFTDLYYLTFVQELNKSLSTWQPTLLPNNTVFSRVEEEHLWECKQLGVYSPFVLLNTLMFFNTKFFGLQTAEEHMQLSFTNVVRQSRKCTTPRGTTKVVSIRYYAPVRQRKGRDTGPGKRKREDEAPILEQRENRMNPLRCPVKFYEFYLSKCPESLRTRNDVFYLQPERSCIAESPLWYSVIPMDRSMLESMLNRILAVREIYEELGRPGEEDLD
UniProt Q92610: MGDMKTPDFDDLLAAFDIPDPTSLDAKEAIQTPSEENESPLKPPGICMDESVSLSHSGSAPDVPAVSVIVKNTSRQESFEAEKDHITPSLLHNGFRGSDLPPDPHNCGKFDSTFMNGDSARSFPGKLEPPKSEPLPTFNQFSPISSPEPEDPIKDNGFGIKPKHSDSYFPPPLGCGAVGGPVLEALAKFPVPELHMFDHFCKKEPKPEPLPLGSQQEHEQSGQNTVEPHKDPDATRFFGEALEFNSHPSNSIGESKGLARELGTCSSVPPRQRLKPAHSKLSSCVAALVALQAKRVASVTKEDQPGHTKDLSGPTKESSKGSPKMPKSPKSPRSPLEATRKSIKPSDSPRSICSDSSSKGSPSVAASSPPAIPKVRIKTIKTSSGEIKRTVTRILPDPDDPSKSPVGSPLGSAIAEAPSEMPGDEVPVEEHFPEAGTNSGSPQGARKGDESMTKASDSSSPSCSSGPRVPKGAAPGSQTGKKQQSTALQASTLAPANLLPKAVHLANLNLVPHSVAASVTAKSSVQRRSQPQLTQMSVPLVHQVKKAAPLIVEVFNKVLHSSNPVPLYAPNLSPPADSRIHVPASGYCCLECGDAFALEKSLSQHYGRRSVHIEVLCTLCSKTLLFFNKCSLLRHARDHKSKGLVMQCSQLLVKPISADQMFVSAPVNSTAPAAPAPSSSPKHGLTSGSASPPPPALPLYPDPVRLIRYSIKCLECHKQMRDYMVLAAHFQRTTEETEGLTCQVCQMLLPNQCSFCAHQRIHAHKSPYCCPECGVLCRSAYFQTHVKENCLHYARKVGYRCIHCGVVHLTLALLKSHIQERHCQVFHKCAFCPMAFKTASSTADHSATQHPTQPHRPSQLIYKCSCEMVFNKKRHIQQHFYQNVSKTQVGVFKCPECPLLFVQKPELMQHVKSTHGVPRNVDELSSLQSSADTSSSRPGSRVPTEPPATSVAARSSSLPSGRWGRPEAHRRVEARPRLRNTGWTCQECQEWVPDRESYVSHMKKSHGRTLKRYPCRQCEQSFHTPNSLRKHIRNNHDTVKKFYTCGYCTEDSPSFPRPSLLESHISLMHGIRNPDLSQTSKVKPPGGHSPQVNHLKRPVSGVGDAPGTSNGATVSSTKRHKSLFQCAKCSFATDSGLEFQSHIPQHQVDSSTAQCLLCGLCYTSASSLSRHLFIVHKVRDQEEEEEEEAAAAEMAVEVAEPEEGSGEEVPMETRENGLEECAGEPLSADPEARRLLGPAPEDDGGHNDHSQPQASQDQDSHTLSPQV
UniProt Q9UBW7: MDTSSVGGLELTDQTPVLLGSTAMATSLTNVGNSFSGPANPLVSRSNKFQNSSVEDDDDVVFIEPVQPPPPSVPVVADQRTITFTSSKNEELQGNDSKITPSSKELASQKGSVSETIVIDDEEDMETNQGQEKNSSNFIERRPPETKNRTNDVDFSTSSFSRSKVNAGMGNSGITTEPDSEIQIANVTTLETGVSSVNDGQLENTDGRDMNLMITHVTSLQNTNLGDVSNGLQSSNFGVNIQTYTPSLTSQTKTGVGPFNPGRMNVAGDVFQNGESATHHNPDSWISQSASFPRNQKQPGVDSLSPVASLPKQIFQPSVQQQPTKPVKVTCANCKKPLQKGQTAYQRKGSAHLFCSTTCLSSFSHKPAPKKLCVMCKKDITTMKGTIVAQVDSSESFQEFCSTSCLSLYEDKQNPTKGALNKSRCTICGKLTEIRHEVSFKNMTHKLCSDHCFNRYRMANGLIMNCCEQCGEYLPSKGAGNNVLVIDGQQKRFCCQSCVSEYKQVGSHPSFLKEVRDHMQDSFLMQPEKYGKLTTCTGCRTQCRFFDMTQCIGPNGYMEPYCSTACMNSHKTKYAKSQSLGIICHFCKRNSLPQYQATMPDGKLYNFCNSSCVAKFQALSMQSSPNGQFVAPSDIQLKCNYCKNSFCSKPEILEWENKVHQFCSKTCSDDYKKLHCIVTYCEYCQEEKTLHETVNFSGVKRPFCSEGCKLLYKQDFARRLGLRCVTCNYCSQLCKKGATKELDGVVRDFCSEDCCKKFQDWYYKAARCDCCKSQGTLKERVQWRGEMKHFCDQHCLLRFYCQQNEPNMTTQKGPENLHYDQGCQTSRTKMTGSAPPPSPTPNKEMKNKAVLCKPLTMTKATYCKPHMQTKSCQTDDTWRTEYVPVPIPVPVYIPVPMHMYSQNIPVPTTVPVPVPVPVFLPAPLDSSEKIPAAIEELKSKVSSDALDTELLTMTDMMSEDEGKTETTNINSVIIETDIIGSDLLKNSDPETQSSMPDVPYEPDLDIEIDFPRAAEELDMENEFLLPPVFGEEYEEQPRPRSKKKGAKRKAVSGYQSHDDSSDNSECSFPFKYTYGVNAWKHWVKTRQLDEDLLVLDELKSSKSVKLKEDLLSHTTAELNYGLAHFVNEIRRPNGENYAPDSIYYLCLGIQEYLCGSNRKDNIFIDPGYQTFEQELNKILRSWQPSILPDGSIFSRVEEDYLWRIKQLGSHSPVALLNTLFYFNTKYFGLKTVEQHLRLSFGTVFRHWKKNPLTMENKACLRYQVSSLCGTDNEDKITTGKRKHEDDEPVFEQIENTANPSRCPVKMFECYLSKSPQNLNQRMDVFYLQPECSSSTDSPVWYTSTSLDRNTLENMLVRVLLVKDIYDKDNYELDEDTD
UniProt Q8IX07: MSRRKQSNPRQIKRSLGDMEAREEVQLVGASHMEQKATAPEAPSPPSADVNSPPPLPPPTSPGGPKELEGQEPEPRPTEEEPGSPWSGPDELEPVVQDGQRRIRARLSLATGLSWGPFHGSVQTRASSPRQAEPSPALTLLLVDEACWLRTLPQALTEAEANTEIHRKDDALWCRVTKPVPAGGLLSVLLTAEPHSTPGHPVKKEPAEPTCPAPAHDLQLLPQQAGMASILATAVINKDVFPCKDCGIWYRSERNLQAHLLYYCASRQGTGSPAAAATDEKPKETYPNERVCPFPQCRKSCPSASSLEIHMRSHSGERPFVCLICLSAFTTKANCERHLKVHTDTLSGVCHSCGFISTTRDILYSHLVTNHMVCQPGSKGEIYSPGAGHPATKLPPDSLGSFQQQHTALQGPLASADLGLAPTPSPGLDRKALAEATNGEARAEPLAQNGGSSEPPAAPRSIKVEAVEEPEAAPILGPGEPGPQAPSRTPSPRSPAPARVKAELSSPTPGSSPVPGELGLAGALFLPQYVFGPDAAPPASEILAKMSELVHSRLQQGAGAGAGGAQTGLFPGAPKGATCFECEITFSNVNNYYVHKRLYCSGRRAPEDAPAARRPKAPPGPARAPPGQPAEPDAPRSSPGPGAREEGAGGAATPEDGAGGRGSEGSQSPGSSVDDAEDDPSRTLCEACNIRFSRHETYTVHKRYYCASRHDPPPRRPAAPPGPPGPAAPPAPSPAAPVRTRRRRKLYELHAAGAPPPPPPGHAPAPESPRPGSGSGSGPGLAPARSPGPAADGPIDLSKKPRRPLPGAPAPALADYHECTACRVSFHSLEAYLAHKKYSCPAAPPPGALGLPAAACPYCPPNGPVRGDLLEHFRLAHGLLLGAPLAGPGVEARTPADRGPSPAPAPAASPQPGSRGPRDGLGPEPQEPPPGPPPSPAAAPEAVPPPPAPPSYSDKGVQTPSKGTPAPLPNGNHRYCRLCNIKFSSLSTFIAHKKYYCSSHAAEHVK

Target | probe-labelled cysteine peptide fold change (10 µM) | probe-labelled cysteine peptide fold change (50 µM)
ZFR_Q96KR1_384+387+391_CELCDVSCTGADAYAAHIR (UniProt Q96KR1) | -0.0237 | -0.171
ZFPL1_O95159_16_KVTNLFCFEHR (UniProt O95159) | 0.163 | -0.151
ZFYVE21_Q9BQ24_138_VLLSGATFLVTFGNSEKPETMTCR (UniProt Q9BQ24) | -0.205 | -0.209
ZMYM4_Q5VZL5_732_INNVMAMCEYCK (UniProt Q5VZL5) | 0.00185 | -0.422
ZNF644_Q9H582_588_SATYICK (UniProt Q9H582) | 0.232 | -0.113
ZMYM3_Q14202_1048_LVLSESCSR (UniProt Q14202) | -0.00773 | -0.0329
ZMYM3_Q14202_484_FCNTTCLGAYK (UniProt Q14202) | -0.138 | -0.789
ZNF516_Q92618_1016_TLATCAAGSR (UniProt Q92618) | -0.106 | -0.458
ZNF579_Q8NAF0_250_AHPCLRPEGEQEGEGGPPPRPK (UniProt Q8NAF0) | -0.0859 | -0.0403
ZFR_Q96KR1_5_MIPICPVVSFTYVPSR (UniProt Q96KR1) | 0.283 | 0.236
ZNF318_Q5VUA4_1363_SCSATMSK (UniProt Q5VUA4) | -0.204 | -0.789
ZNF384_Q8TF68_408_CHNCHR (UniProt Q8TF68) | 0.0575 | 0.173
ZNF217_O75362_286_CIPQLDPFTTFQAWQLATK (UniProt O75362) | -0.173 | -0.386
ZFYVE1_Q9HBF4_217_TSPTQESCTVGVWAAYDPVHK (UniProt Q9HBF4) | 0.317 | 0.0727
ZNF592_Q92610_265_ELGTCSSVPPR (UniProt Q92610) | 0.0424 | -0.225
ZNF687_Q8N1G0_1003_SFCSAPSLR (UniProt Q8N1G0) | -0.121 | 0.0011
ZNF622_Q969S3_6+9_ATYTCITCR (UniProt Q969S3) | -0.218 | -0.141

Target | probe-labelled cysteine peptide fold change (10 µM) | probe-labelled cysteine peptide fold change (50 µM)
ZNF330_Q9Y3S2_70_LPICAQCGK (UniProt Q9Y3S2) | 0.0547 | -0.0961
ZNF521_Q96K83_537_QVHCDLSGSR (UniProt Q96K83) | -0.0949 | -0.342
ZNF24_P17028_233_YGETCFPK (UniProt P17028) | -0.021 | -0.211
ZMYM2_Q9UBW7_872_SCQTDDTWR (UniProt Q9UBW7) | -0.203 | -0.257
ZNF496_Q96IT1_134_HCEDPVVIDDGDSPLDQEQEQLPVEPHSDLAK (UniProt Q96IT1) | -0.264 | -0.188
ZNF451_Q9Y4E5_959_DAADFAICMHAGR (UniProt Q9Y4E5) | -0.0248 | 0.21
ZFPL1_O95159_35_CIVQSYLQWLQDSDYNPNCR (UniProt O95159) | -0.228 | -0.178
ZNF512B_Q96KM6_353_AADSLDTCPIPPK (UniProt Q96KM6) | 0.0974 | -0.351
ZFR_Q96KR1_899_CLDALAALR (UniProt Q96KR1) | -0.0904 | -0.0773
ZNF106_Q9H2Y7_457_SPLLPCPATK (UniProt Q9H2Y7) | -0.342 | -0.491
ZMYND8_Q9ULU4_1062_SCTQSATAPQQEADAEVNTETLNK (UniProt Q9ULU4) | 0.0332 | -0.0292
ZNF281_Q9Y2X9_291+294_HVLIHTGERPFQCSQCSMGFIQK (UniProt Q9Y2X9) | -0.0697 | -0.111
ZNF649_Q9BS31_183_AHECTDCGK (UniProt Q9BS31) | 0.185 | 0.0149
ZFPM1_Q8IX07_147_QAEPSPALTLLLVDEACWLR (UniProt Q8IX07) | 0.0696 | -0.102
ZFP91_Q96JP5_520_SYCSGTER (UniProt Q96JP5) | -0.138 | -0.0667
ZNF592_Q92610_790_ENCLHYAR (UniProt Q92610) | 0.0985 | 0.121
ZNF667_Q5HYK9_146_GHSGKKPLKCNDCGK (UniProt Q5HYK9) | 0.034 | 0.501

A different layout for some results above.
Target	probe-labelled cysteine peptide fold change (10 µM)	probe-labelled cysteine peptide fold change (50 µM)
ZMYM2_Q9UBW7_872_SCQTDDTWR (UniProt Q9UBW7)	-0.203	-0.257
ZFPM1_Q8IX07_147_QAEPSPALTLLLVDEACWLR (UniProt Q8IX07)	0.0696	-0.102

Reference: the supplement of paper PMC12067093, “Discovery and optimisation of a covalent ligand for TRIM25 and its application to targeted protein ubiquitination” (Chemical Science, 2025)
